# PubChem BioAssay AID743456, Peter MacCallum Cancer Centre | 2014
# Assay: 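Mimic library tested for viability and apoptosis changes under vorinostat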 (primary screen)
# System: human HCT116-VR colon cancer cells, a vorinostat-resistant HCT116 line
# Reagent: miRNA mimic
# Time to read-out: about 3 days from transfection to readout; drug present for the last 24 h
# Treatment: vorinostat at 2.5 µM final for 24 h
# Detection: 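Per-well live-cell protease fluorescence and caspase luminescence under 2.5 µM vorinostat for 24 h, scored as robust z-scores and against mock transfection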
# Reading the numbers: viability robust z-score: higher = more viable cells; caspase robust z-score: higher = more caspase activity, more apoptosis
# Rule for the call: 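Active when viability drops or caspase activity climbs beyond robust z thresholds, with wells of poor cell health excluded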
# The whole screen tested 878 reagents; shown is a part drawn at random. Of all reagents, 27 (3.1%) got an active call. 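27 mimics are marked active, unlike an earlier stated count of 24; the viability threshold is described inconsistently.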 Unmarked entries are inactive. Not all columns of the deposit are shown. No sequences are given here. Not stated in the record: the amount of reagent.
miRNA,viability robust z-score,caspase robust z-score,viability hit class,caspase hit class
hsa-miR-1277,0.88,-0.88,no change,no change
hsa-miR-198,0.74,-0.5,no change,no change
hsa-miR-585,-0.94,0.65,no change,no change
hsa-miR-580,0.34,-0.94,no change,no change
hsa-miR-1913,0.78,0.48,no change,no change
hsa-miR-1261,-2.67,-1.06,no change,no change
hsa-miR-1267,0.74,-0.52,no change,no change
hsa-miR-494,0.03,-0.2,no change,no change
hsa-miR-940,-0.88,-0.04,no change,no change
hsa-miR-518a-3p,-1.16,-0.47,no change,no change
hsa-miR-196a,-1.02,-0.25,no change,no change
hsa-miR-524-5p,-0.53,0.44,no change,no change
hsa-miR-1224-5p,0.15,-0.65,no change,no change
hsa-miR-142-3p,-0.81,2.52,no change,no change
hsa-miR-516b,-2.65,2.73,no change,no change
hsa-miR-600,-0.44,0.73,no change,no change
hsa-miR-655,-0.22,-0.86,no change,no change
hsa-miR-568,0.74,-0.52,no change,no change
hsa-miR-181c,-0.26,0.74,no change,no change
hsa-miR-492,-1.05,-0.9,no change,no change
hsa-let-7i,0.12,0.94,no change,no change
hsa-miR-220a,-0.14,0.34,no change,no change
hsa-miR-24-1*,0.15,2.41,no change,no change
hsa-miR-657,-1.54,-0.97,no change,no change
hsa-miR-7-1*,1.18,-0.59,no change,no change
hsa-miR-135a*,-0.18,2.7,no change,no change

Next part; the last 6 above are carried over.
miRNA,viability robust z-score,caspase robust z-score,viability hit class,caspase hit class
hsa-let-7i,0.12,0.94,no change,no change
hsa-miR-220a,-0.14,0.34,no change,no change
hsa-miR-24-1*,0.15,2.41,no change,no change
hsa-miR-657,-1.54,-0.97,no change,no change
hsa-miR-7-1*,1.18,-0.59,no change,no change
hsa-miR-135a*,-0.18,2.7,no change,no change
hsa-miR-200b,0.7,-0.14,no change,no change
hsa-miR-15a*,0.01,2.9,no change,no change
hsa-miR-488,-0.57,0.68,no change,no change
hsa-miR-520d-3p,0.18,1.39,no change,no change
hsa-miR-562,0.53,-0.61,no change,no change
hsa-miR-801,-0.59,-0.36,no change,no change
hsa-miR-517a,-1.12,3.56,no change,no change
hsa-miR-212,0.01,0.4,no change,no change
hsa-miR-32,0.7,-0.62,no change,no change
hsa-miR-32*,-0.18,0.4,no change,no change
hsa-miR-382,1.11,0.72,no change,no change
hsa-miR-302d,-0.3,1.38,no change,no change
hsa-miR-616,-0.94,0.24,no change,no change
hsa-miR-886-5p,0.68,-0.62,no change,no change
hsa-miR-545*,1.14,-0.61,no change,no change
hsa-miR-302b,0.24,1.21,no change,no change
hsa-miR-626,1.45,1.26,no change,no change
hsa-miR-629,-0.67,2.16,no change,no change
hsa-miR-132,-0.16,-0.38,no change,no change
hsa-miR-29c,-0.36,-0.94,no change,no change
hsa-miR-624,-1.48,1.09,no change,no change
hsa-miR-449a,-1.84,4.25,no change,no change
hsa-miR-181b,-0.42,1.27,no change,no change
hsa-miR-29b-1*,0.41,0.74,no change,no change
